# Reference: PubChem BioAssay AID493014 (National Center for Advancing Translational Sciences (NCATS), 2011)
# The other results are listed elsewhere or left out. The main result of the screen is listed elsewhere. These columns were measured beside it and carry no call. Most of these compounds were active or inconclusive in the main read-out, so they are no random draw. The note in brackets gives the kind of curve behind each potency; many fits are weak.
# Assay: qHTS Assay to Find Inhibitors of Chronic Active B-Cell Receptor Signaling
# Conditions: ABC-DLBCL IkBa-CBG/CBR reporter, luminescence ratio (green luciferase fused to IkBa over red control in TMD8 lymphoma cells), 4 h
# Method in brief: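 Concentration-response series (up to 46 uM) were applied to TMD8 dual-reporter cells for 4 h at 37C with doxycycline. Green/red ratio, after filter-overlap correction, defined %Activity; red signal alone was normalised to basal cells and zero luminescence.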
# [1] = measured here: CBR red luminescence, cell number
# [2] = measured here: IkBa-CBG green luminescence
Compound,AC50 [1],AC50 [2]
O=C(O)COc1ccccc1/C=N/NC(=O)c1ccc(F)cc1,"15.8 µM [falling, partial curve, poor fit]",
Cc1cccc(NC(=O)c2ccc(S(=O)(=O)N3CCOCC3)cc2)c1C,"35.5 µM [falling, single point]",
CC1C=Cc2ccccc2N1C(=O)c1ccccc1 (centres undefined),"10 µM [falling, partial curve, poor fit]",
Cc1ccccc1/C=N/N=C1/NC(=O)CCS1,"0.631 µM [rising, full curve, poor fit]",
CC(C)c1ccc(C2C3CSCC=C3C(C#N)=C(N)C2(C#N)C#N)cc1 (centres undefined),"29.1 µM [falling, single point]",
Cc1ccc(C2CC(c3cccs3)=NN2C(=O)CCl)cc1 (centres undefined),"7.08 µM [falling, partial curve, poor fit]",
Cn1c(=O)c2c(nc(N/N=C/c3cccnc3)n2Cc2ccc(F)cc2)n(C)c1=O,"3.16 µM [falling, full curve, poor fit]","2.82 µM [rising, full curve, poor fit]"
COc1ccccc1C1=NC(c2ccc(F)cc2)N=C1C (centres undefined),"14.1 µM [falling, partial curve]",
Cc1cc(C)c2nc(SCC(=O)Nc3ccc(S(=O)(=O)N4CCCC4)cc3)c(C)cc2c1,"29.1 µM [rising, single point]",
Cc1cc(C)c2nc(N3CCC(C(=O)NCCCN4CCCCC4)CC3)sc2c1,"14.6 µM [falling, partial curve]",
S=c1[nH]nc(-c2cc(-c3ccccc3)n[nH]2)n1/N=C/c1ccc(Cl)cc1,"35.5 µM [rising, single point]",
Clc1cccc(-c2ccc3ncnc(NCc4cccs4)c3c2)c1,"29.1 µM [falling, single point]",
O=C(O)C1=C[C@H](c2cccs2)C[C@H](OCc2ccc(CO)cc2)O1,,"11.2 µM [falling, partial curve, poor fit]"
CCCN1CCN(CCCNC(=O)c2cc3c(=O)n(C)c4ccccc4c3n2C)CC1,"7.31 µM [falling, single point]",
C/C(=N\NC(=O)c1cc(C)oc1C)c1ccc(N2CCOCC2)cc1,"35.5 µM [falling, partial curve, poor fit]",
CC(C)(c1cc(Br)c(O)c(Br)c1)c1cc(Br)c(O)c(Br)c1,"18.4 µM [rising, partial curve, poor fit]","23.1 µM [falling, partial curve, poor fit]"
COC(=O)CSc1nnc(-c2c[nH]c3ccccc23)o1,"22.4 µM [falling, single point]",

# An excerpt from above in order of length of the SMILES, ascending:
Compound,AC50 [1],AC50 [2]
O=C(O)COc1ccccc1/C=N/NC(=O)c1ccc(F)cc1,"15.8 µM [falling, partial curve, poor fit]",
CC(C)(c1cc(Br)c(O)c(Br)c1)c1cc(Br)c(O)c(Br)c1,"18.4 µM [rising, partial curve, poor fit]","23.1 µM [falling, partial curve, poor fit]"
Cc1cc(C)c2nc(SCC(=O)Nc3ccc(S(=O)(=O)N4CCCC4)cc3)c(C)cc2c1,"29.1 µM [rising, single point]",
